The other results are listed elsewhere or left out.
How the values were obtained:
Test in all cases: log2 fold change, soluble protein after heating vs DMSO (PISA); higher = thermal stabilisation; K562 lysate, 10 uM; active = over 0.2 and 3.5 SD of the protein, either way, in both replicates (recomputed)
ibrutinib = compound: C=CC(=O)N1CCC[C@@H](n2nc(-c3ccc(Oc4ccccc4)cc3)c3c(N)ncnc32)C1 [ibrutinib]
Outline: (§1)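 Following dounce homogenisation of K562 pellets in PBS pH 7.4 with 1 mM MgCl2, crude extract at 1 mg/mL protein was incubated for 30 min with 10 μM compound. Aliquots were then heated for 3 min over 48°C-58°C and pooled, NP-40 was added to 0.5% at 4°C, and soluble protein was recovered as the supernatant at 21,000xg for 90 min. Channel-sum-equalised TMTpro 16plex LC-MS/MS quantified this protein. Each value, from duplicates, is a log-two fold change in thermal stability relative to solvent controls.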

Chains of the proteins cited; added tags and fusions are not shown. Lines headed by an entry give the natural chain unless they say otherwise; changes in a name come on top.
UniProt Q9UJ83: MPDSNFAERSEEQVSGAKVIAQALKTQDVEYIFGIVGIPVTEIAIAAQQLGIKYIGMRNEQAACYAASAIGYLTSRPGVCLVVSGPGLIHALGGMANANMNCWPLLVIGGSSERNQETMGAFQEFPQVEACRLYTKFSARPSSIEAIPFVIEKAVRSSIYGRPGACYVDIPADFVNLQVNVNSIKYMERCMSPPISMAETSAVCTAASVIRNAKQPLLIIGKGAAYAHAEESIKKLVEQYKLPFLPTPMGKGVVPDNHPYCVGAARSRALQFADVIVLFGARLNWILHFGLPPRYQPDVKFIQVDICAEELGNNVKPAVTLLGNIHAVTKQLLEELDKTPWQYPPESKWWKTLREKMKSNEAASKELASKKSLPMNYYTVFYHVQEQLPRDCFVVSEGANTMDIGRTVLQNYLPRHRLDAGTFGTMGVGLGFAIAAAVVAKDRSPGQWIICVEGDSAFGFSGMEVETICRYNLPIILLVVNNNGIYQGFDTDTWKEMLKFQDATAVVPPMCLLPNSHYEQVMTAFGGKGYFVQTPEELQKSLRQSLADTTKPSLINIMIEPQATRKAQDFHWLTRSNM
UniProt P29084: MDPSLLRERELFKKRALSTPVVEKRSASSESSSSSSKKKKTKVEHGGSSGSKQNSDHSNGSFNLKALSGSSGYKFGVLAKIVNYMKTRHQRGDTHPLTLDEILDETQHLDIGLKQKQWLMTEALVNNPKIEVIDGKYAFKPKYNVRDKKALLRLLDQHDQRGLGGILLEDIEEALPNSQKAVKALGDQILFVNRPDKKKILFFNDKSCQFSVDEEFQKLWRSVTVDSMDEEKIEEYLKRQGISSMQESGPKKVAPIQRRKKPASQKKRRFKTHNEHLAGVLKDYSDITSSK
UniProt Q6PII5: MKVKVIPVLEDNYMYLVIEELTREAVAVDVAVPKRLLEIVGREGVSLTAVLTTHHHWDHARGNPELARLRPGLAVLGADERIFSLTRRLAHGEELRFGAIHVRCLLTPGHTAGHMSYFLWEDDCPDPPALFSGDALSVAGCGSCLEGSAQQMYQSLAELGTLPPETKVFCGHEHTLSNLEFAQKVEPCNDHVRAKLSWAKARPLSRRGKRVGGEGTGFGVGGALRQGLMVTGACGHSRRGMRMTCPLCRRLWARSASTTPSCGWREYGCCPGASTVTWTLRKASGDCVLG
UniProt P13807: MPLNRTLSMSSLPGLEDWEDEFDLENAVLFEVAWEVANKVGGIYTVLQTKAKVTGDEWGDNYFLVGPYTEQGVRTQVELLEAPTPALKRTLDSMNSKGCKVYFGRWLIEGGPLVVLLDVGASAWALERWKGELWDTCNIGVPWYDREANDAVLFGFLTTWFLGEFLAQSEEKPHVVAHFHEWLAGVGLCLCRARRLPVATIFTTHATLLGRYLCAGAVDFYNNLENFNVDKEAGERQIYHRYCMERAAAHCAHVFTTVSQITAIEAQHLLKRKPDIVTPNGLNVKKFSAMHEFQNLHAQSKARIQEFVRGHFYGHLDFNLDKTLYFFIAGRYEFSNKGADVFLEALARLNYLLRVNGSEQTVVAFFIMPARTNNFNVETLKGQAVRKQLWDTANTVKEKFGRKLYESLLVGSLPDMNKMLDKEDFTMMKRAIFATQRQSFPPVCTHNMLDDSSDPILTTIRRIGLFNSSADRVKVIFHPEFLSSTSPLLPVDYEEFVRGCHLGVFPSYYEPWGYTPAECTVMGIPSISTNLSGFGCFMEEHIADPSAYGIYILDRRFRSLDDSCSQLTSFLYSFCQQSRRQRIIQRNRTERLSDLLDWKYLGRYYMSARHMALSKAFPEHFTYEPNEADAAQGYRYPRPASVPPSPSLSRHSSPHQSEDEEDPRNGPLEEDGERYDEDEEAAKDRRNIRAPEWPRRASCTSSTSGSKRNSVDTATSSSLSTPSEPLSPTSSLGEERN
UniProt Q13888: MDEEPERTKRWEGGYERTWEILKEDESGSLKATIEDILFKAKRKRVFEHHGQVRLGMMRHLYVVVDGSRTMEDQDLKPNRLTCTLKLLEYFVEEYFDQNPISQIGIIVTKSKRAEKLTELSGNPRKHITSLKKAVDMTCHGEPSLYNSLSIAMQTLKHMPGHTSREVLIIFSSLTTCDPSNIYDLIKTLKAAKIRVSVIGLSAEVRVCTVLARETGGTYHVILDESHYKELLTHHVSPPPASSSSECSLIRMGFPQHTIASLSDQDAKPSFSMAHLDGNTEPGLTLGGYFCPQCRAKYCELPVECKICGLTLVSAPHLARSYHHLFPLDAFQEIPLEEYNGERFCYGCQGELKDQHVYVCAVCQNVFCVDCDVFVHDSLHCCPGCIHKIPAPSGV
UniProt O95479: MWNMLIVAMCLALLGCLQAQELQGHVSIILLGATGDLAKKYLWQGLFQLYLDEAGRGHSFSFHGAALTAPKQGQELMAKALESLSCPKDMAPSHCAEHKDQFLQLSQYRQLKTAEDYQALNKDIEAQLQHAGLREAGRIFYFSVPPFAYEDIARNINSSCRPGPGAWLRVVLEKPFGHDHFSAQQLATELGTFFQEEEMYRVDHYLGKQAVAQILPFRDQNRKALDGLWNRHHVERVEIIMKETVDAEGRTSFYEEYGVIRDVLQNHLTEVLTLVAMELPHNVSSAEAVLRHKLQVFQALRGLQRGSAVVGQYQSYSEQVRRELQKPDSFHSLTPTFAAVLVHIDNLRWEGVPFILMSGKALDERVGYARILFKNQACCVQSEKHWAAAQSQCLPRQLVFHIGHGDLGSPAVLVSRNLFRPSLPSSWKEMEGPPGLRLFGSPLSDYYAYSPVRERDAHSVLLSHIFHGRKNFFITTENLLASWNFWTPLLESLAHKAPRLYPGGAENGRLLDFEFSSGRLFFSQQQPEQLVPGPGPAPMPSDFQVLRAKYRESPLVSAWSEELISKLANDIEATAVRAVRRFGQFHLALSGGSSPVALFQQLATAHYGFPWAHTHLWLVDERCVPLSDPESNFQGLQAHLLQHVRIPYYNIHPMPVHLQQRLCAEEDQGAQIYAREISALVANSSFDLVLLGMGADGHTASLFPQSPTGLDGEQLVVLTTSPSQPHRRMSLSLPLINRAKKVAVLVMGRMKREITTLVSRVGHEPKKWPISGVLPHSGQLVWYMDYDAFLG

[1] = compound: CC(=O)c1cnc2ccc(-c3cc(Cl)c(O)c(Cl)c3)nc2c1N[C@H]1CC[C@H](CN(C)C)CC1
Outline: as §1

ralimetinib = compound: CC(C)(C)Cn1c(N)nc2ccc(-c3[nH]c(C(C)(C)C)nc3-c3ccc(F)cc3)nc21 [ralimetinib]
Outline: as §1

[2] = compound: CC(C)(O)CC(=O)NCCn1ccc2ncnc(Nc3ccc(Oc4cccc(C(F)(F)F)c4)c(Cl)c3)c21
Outline: as §1

[3] = compound: CC(C)C1=C2N=C(C=C(N2N=C1)NCC3=CC=CC=C3)NCCCCCCN
Outline: as §1

[4] = compound: CC1=C(C(CC(=O)N1)C2=CC=C(C=C2)C(F)(F)F)C(=O)NC3=C(C=C4C(=C3)C=NN4)F
Outline: as §1

[5] = compound: CC1=C(C2=C(C=C1)C(=O)C3=CC=CC=C3N2CCCN)C
Outline: as §1

[6] = compound: CC1=C(C=C(C=C1)NC(=O)C2=CC(=CC=C2)C(C)(C)C#N)NC3=CC4=C(C=C3)N=CN(C4=O)C
Outline: as §1

[7] = compound: CC1=C(C=C(C=C1)NC(=O)C2=CC(=CC=C2)N(C)C)NC(=O)C3=CC=C(C=C3)O
Outline: as §1

[8] = compound: CC1=CC=C(C=C1)SC2=C3C=C(SC3=CN=C2)C(=O)N
Outline: as §1

vemurafenib = compound: CCCS(=O)(=O)Nc1ccc(F)c(C(=O)c2c[nH]c3ncc(-c4ccc(Cl)cc4)cc23)c1F [vemurafenib]
Outline: as §1

[9] = compound: CCCS(=O)(=O)Nc1ccc(F)c(C(=O)c2c[nH]c3ncc(Cl)cc23)c1F
Outline: as §1

barasertib = compound: CCN(CCCOc1ccc2c(Nc3cc(CC(=O)Nc4cccc(F)c4)[nH]n3)ncnc2c1)CCOP(=O)(O)O [barasertib]
Outline: as §1

[10] = compound: CC[C@@H]1C(=O)N(C)c2cnc(Nc3ccc(C(=O)NC4CCN(C)CC4)cc3OC)nc2N1C1CCCC1
Outline: as §1

volasertib = compound: CC[C@@H]1C(=O)N(C)c2cnc(Nc3ccc(C(=O)N[C@H]4CC[C@H](N5CCN(CC6CC6)CC5)CC4)cc3OC)nc2N1C(C)C [volasertib]
Outline: as §1

[11] = compound: CCn1c(C(=O)N(C2CC2)C2CC2)cc2c3c(ncn3C)c(Nc3cc(C)n(C)n3)nc21
Outline: as §1

[12] = compound: CCn1cc(-c2ccnc3[nH]c(-c4cccc(CN(C)C)c4)cc23)c(-c2ccc(NC(=O)N(C)C)cc2)n1
Outline: as §1

[13] = compound: CN1CCC(CNc2ccc3ncc(-c4cccc(OC(F)(F)F)c4)n3n2)CC1
Outline: as §1

saracatinib = compound: CN1CCN(CCOc2cc(OC3CCOCC3)c3c(Nc4c(Cl)ccc5c4OCO5)ncnc3c2)CC1 [saracatinib]
Outline: as §1

sotrastaurin = compound: CN1CCN(c2nc(C3=C(c4c[nH]c5ccccc45)C(=O)NC3=O)c3ccccc3n2)CC1 [sotrastaurin]
Outline: as §1

Measured: log2 fold change

HACL1 (UniProt Q9UJ83)
inactive: ibrutinib 0.013 | [1] 0.015 | ralimetinib -0.017 | [2] 0.002 | [3] -0.047 | [4] 0 | [5] -0.013 | [6] 0.002 | [7] -0.014 | [8] 0.021 | vemurafenib 0.027 | [9] -0.004 | barasertib -0.005 | [10] 0.041 | volasertib 0.023 | [11] 0.01 | [12] 0.047 | [13] 0 | saracatinib 0.012 | sotrastaurin 0.005

GTF2E2 (UniProt P29084)
inactive: ibrutinib 0.017 | [1] 0.013 | ralimetinib 0.014 | [2] 0.104 | [3] -0.03 | [4] -0.006 | [5] -0.035 | [6] 0.079 | [7] -0.004 | [8] 0.019 | vemurafenib 0.022 | [9] 0.014 | barasertib 0.066 | [10] 0.042 | volasertib -0.006 | [11] 0.031 | [12] 0.001 | [13] -0.048 | saracatinib -0.014 | sotrastaurin 0.016

HAGHL isoform 2 (UniProt Q6PII5)
inactive: ibrutinib 0.118 | [1] 0.014 | ralimetinib 0.032 | [2] -0.059 | [3] -0.053 | [4] -0.081 | [5] -0.035 | [6] -0.069 | [7] 0.003 | [8] -0.013 | vemurafenib 0.044 | [9] 0.019 | barasertib 0.013 | [10] 0.079 | volasertib -0.029 | [11] 0.049 | saracatinib -0.003 | sotrastaurin -0.011

GYS1 (UniProt P13807)
inactive: ibrutinib 0.062 | [1] -0.04 | ralimetinib 0.041 | [2] 0.012 | [3] -0.028 | [4] 0.002 | [5] 0.021 | [6] 0 | [7] 0.011 | [8] 0.005 | vemurafenib 0.025 | [9] 0.009 | barasertib 0.034 | [10] 0.046 | volasertib -0.043 | [11] 0.029 | [12] 0.045 | [13] 0.026 | saracatinib -0.006 | sotrastaurin 0.035

GTF2H2 (UniProt Q13888)
inactive: ibrutinib 0.007 | [1] 0.028 | ralimetinib -0.003 | [2] -0.042 | [3] 0.031 | [4] -0.021 | [5] -0.009 | [6] 0.045 | [7] 0.007 | [8] -0.014 | vemurafenib -0.037 | [9] 0.016 | barasertib 0.019 | [10] -0.053 | volasertib -0.053 | [11] 0.083 | [12] -0.1 | [13] 0.051 | saracatinib 0.045 | sotrastaurin -0.014

H6PD (UniProt O95479)
inactive: ibrutinib -0.038 | [1] 0.066 | ralimetinib -0.057 | [2] -0.117 | [3] -0.007 | [4] -0.097 | [5] -0.031 | [6] -0.115 | [7] 0.045 | [8] -0.025 | [9] 0.077 | barasertib 0.047 | [10] -0.068 | volasertib 0 | [11] 0.069 | [12] 0.004 | [13] -0.001 | saracatinib -0.145 | sotrastaurin -0.173

From the supplement of paper PMC10849652
